PubChem BioAssay AID1508600 (Functional Genomics Laboratory (NCATS/FGL), 2020)
In all, about 53,000 sequences went through this assay and about 3,700 (7%) were called active.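 Rule for the calls: active = gene knockdowns whose robust z-score for IL-1 alpha signal is at least 2 or at most -2, so actives lie on both sides; inactive = the rest.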 Some of the results follow.

test: Components of the Cytosolic LPS Sensing Pathway: Gene Identification via Genome-wide siRNA Screen; conditions: RAW264.7 macrophages, IL-1a HTRF, actives lie on both sides, screened at 100 nM (by protocol), cells primed 5 h with Pam3CSK4 first;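 note: robust z of the log signal after scaling to non-targeting control siRNA wells of the plate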
Outline: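 RAW264.7; siRNA 100 nM final, RNAiMAX, 48h 37 degrees C; Pam3CSK4 5 h; LipidA + TransIT-TKO 24 h; IL-1a HTRF; CellTiter-Glo viability; robust z vs negative-control median.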

| Sequence | z-score |
| --- | --- |
| GGCCAACUUUUUUCACCCATT against Git1 | active: -2.19 |
| GGAACAUUCUCUCCUUAUGTT against Ctps | inactive: -0.168 |
| GGACCUGAAGGCUGAAAUUTT against Ing4 | active: 3.08 |
| GCAGGUGAAAAGCAAUCCUTT against Prss27 | inactive: 1.03 |
| GGGUCACCAAUCCCAUCAATT against Nags | inactive: 0.144 |
| GGAACAGCAUCGUAACUAUTT against Csgalnact1 | inactive: -0.747 |
| CCACCUAUGAAUUAACACATT against Sdk1 | inactive: -1.05 |
| GGCUUAGCUUUUGUGAUUCTT against Olfr143 | inactive: -1.24 |
| GGAGAGACUCAGGAGUUUUTT against Rnd2 | active: 2.74 |
| GGAAAGUGAUUUUUGGAUCTT against Fpr-rs7 | inactive: 0.0196 |
| GCAUUGUGCUUUUGACAACTT against Abca15 | inactive: -0.173 |
| GCCGGAGGUUACAGCAAAGTT against Dmrt1 | inactive: -0.296 |
| GGCAUGAUGAAGCUAUUCGTT against Yipf6 | inactive: 0.0872 |
| GACAGUGAAGGCUUGCCAUTT against 1700019M22Rik | inactive: -0.45 |
| GGAUGUGCGGAACUUUAAGTT against Ccr7 | inactive: -0.192 |
| GGUCCAACAUGUCUACCCATT against Rfx3 | inactive: -1.47 |
| GGCAUCUUCCUUUAAAAAGTT against Gar1 | inactive: -0.708 |
| GGGAUUACCGUGAUUGAUGTT against Fam78a | inactive: -1 |
| GGGUGUUCAUAAAUGGUAUTT against Grb2 | inactive: 0.654 |
| GCGAAAUCAUGACAAAUUCTT against Tulp3 | inactive: 0.368 |
| CGUGCUUAGCAAUCUGAAUTT against Bcl6b | active: 2.44 |
| GGCCAGACAAAUGAUGCCATT against Slc25a30 | active: -3.04 |
| CCCACAAAAUACCAAAUCCTT against Klk1b27 | inactive: -1.74 |

Part of the list above, with bars between the fields.
Sequence | z-score
GCAGGUGAAAAGCAAUCCUTT against Prss27 | inactive: 1.03
GGGUCACCAAUCCCAUCAATT against Nags | inactive: 0.144
GGAACAGCAUCGUAACUAUTT against Csgalnact1 | inactive: -0.747

The list continues.

| Sequence | z-score |
| --- | --- |
| GGUUCCUAGGUUUUAGAAATT against Olfr631 | inactive: 0.659 |
| GCAUUACGGCGUGUUCACCTT against Nr2f6 | inactive: 1.58 |
| GGUUCUAUAGGGCUCCGAATT against Tmem179b | active: 4.23 |
| GCGAACGAAGCAUAAAUGGTT against Mettl1 | inactive: 1.62 |
| CCAACUUCAAAACUAUCGUTT against Trp53bp1 | active: 2.19 |
| GGAGUUGGUGAAGCAGCUUTT against Arhgap25 | inactive: -0.185 |
| CCCUUAUUGAUUCUUCAAGTT against Ngp | inactive: 0.342 |
| GGCAAUCCAGGCAAUAUCATT against C1qa | inactive: -0.808 |
| CCGUAGAGAUCAACAACACTT against Npepl1 | inactive: 0.799 |
| CGAGUUGCUCGUGUUCAGUTT against Ndufa1 | inactive: 0.794 |
| GGAGUUCCACUUUCCAGUUTT against Dbndd2 | inactive: 1.11 |
| CCAUGAGAACCUGAUGAAUTT against Pag1 | active: -2.38 |
| GGGUUCUGUUACAAUUCCATT against Defb11 | inactive: 0.921 |
| GGAGUGUGAGGUCCUCUCUTT against Sdsl | inactive: 1.85 |
| GCGUGUAGGAAUAAUACCUTT against Psmc6 | active: -2.66 |
| CCAUAUGUCCUGUUUAAGATT against Grik2 | inactive: 0.304 |
| GCCUCAAGCCUACCAUGUUTT against Fadd | inactive: -0.344 |
| GGAUUUUUUUUCUUGUUGCTT against Fam160a1 | inactive: 0.497 |
| GGACAUCCAGUAUUUUGUGTT against Pstpip2 | inactive: -0.784 |
| GGGCUGUCAUUAUAGUCCATT against Unc93a | inactive: -0.378 |
| GGUGUCUGUUUGCCAUCUUTT against Adam39 | inactive: -0.639 |
| GGAGAAACUUCAACUCUUATT against Resp18 | inactive: -0.396 |
| GGAAAUGCCAGGAUGGAUCTT against AF366264 | inactive: 0.519 |

| Sequence | z-score |
| --- | --- |
| GGAUCUCAUAAAGGAGGCUTT against Prkg1 | inactive: -0.638 |
| CCAGAGCUAAAAGAAAAGATT against Elovl6 | inactive: 1.02 |
| GGGAAUGUUGACUUGUGUUTT against Itfg2 | inactive: -0.176 |
| GGGCUGAUAAUGUUAGCUCTT against Olfr161 | inactive: 0.48 |
| CGUGAACUAUGAUUGGAUATT against Gbe1 | inactive: 0.382 |
| GCCAAGUACUCGUUUCCACTT against Wtap | inactive: 0.826 |
| CCGGUCAAAAUUGAAAAGGTT against Bves | inactive: 0.666 |
| GCGUGUCCCUUCAGUUUGUTT against Zscan12 | inactive: 1.83 |
| GGAAACCUAUGAGAAUAUCTT against Ipo5 | inactive: -0.281 |
| GGGAACCUUUUCUAAGUUCTT against 9230112E08Rik | inactive: 0.518 |
| CGCAUAUCAGCAGUGUAGATT against Slc26a11 | inactive: -0.63 |
| GGAAAUUACCCAAUAUGUATT against Naip2 | inactive: 0.25 |
| GGAGAAGCAGAAGAUGUAUTT against Stk11 | inactive: -0.113 |
| GCCAGAAACUAAUGAGAUCTT against Tmem38a | inactive: 1.59 |
| CCAUGGACCCUUUUUUUGGTT against Plekhh3 | inactive: 0.301 |
| CCCUAAGCUCUGUUCCCAGTT against Olfr371 | inactive: -0.561 |
| GGAGCUGGUCAAGAACUACTT against Chrna7 | inactive: 1.38 |
| GGCCUUAGGAAUCAAGUUGTT against 9530053A07Rik | inactive: 1.24 |
| GCAUGAAGUUAGUAAUGCUTT against C230029F24Rik | inactive: 0.107 |
| GCAUGAAUCGUGCGAAGAUTT against Zfp871 | inactive: 0.903 |
| GGGAGACAUUCAUUAUCAGTT against Slc32a1 | inactive: 0.0976 |
| GGUGUUUCCCAUUAGAACCTT against Borcs5 | inactive: -1.03 |
